Results are given in words; binding and its absence hold for the method and conditions named. For some assays here: Where a sequence is shown, tags or fusion partners need not be part of it.
What was measured:
[1] = target: T1, Fc-Mer (MERTK Fc chimera) (human, UniProt Q12866 21-505); assay: SPR; Biacore T200, CM5 chip; Protein A amine-coupled (2300 RU), Fc-Mer (150 RU) or Fc-Axl (140 RU) captured; Gas6 or PGRN injected at 20 uL/min for 500 s, 1000 s dissociation; HBS-EP+ with 1.5 mM CaCl2 and 0.1% BSA; 1:1 kinetic model; both purified
T1 chain: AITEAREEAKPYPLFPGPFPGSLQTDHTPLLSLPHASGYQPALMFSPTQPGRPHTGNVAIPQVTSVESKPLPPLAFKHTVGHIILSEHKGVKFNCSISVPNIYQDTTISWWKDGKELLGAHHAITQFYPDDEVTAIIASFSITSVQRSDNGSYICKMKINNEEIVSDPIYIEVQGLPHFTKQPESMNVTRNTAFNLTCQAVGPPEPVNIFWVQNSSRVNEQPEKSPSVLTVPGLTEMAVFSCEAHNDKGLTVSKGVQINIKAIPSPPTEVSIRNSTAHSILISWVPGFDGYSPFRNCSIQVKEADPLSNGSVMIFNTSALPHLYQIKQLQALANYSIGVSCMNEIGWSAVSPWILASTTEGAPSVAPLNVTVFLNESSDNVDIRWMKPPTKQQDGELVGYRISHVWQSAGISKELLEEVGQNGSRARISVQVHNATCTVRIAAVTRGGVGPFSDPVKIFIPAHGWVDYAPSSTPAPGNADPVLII

By UniProt entry, the sequences of proteins in these tests, tags left out. Where a name states a change or a piece, a line headed by the entry shows the natural chain unless it says otherwise. Residues count along the entry.
UniProt P30530, residues 26-451: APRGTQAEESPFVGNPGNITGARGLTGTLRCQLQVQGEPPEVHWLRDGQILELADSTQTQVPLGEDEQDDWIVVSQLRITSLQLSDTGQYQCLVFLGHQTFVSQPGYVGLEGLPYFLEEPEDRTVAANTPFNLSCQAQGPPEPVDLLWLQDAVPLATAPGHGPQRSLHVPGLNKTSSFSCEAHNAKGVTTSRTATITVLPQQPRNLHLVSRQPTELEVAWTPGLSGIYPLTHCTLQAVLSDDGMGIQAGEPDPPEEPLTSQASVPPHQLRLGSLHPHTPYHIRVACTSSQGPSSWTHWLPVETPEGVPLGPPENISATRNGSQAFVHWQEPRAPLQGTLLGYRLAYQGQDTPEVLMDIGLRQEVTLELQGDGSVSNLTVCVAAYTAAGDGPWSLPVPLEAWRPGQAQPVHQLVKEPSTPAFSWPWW
UniProt P28799, residues 18-593: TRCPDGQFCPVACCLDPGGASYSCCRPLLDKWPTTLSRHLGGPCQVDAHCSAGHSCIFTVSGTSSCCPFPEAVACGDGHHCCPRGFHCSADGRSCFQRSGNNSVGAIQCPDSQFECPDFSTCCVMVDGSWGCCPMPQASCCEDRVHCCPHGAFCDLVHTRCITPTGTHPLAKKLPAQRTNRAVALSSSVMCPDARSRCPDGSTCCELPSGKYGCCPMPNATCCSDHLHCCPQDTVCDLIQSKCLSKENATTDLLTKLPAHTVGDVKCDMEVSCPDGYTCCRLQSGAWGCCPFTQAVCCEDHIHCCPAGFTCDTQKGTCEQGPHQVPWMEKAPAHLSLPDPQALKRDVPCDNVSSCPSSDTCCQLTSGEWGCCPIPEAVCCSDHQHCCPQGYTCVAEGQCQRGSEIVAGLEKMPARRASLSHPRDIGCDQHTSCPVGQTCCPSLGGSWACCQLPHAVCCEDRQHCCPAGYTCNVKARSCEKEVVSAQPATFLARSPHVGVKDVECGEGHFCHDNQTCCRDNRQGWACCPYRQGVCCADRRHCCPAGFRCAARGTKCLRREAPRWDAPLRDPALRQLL

[2] = target: Fc-Axl (AXL Fc chimera) (human) (UniProt P30530); assay: as above

binding [1]: no binding
binding [2]: no binding
Substance: progranulin (PGRN), recombinant human (from UniProt P28799 18-593)

From article PMC12218935, “Opposing role of phagocytic receptors MERTK and AXL in Progranulin deficient FTD” (Communications Biology, 2025)
